From patent US20250049819A1, “METHODS FOR TREATING AND PREVENTING C. DIFFICILE INFECTION” (Paratek Pharmaceuticals, Inc., priority 2016, published 2025)
At least one structure is not confirmed: it was looked up by name or label, or the drawing left a doubt.

Test system: C. difficile PCR ribotype 027 strain 210
Assay: In vitro human gut model, C. difficile germination, proliferation and toxin production (Example 4)
Type: cell-based
Details: all three vessels
Experimental: The gut model was inoculated with pooled fecal slurry (5 volunteers ≥60 years of age with no history of antibiotic therapy in the previous 3 months) and left for 2 weeks to allow the bacterial populations to achieve steady state. A single inoculum (˜10^7 cfu/mL) of C. difficile spores (PCR ribotype 027 strain 210) was added into vessel 1 of the gut model on day 14. One week later, on day 21, a second aliquot of C. difficile spores was added, and antibiotic instillation commenced. Model A (LHS) was exposed to moxifloxacin (43 mg/L, once daily, for 7 days) and Model B (RHS) was exposed to omadacycline (430 mg/L, once daily, for 7 days) commenced on day 21.
Bacterial populations in the gut model were monitored using selective agars to count viable bacterial colonies. Populations were monitored every other day for the first 2 weeks until the steady state was reached, and daily thereafter. C. difficile populations were monitored in all three vessels, and all other bacterial groups (total obligate anaerobes, total facultative anaerobes, lactose fermenting Enterobacteriaceae, Enterococci, total Clostridia, Lactobacilli, Bifidobacteria and B. fragilis group) were monitored in vessels 2 and 3 only. […] C. difficile total viable counts and spores counts were monitored using viable counting and a differential alcohol shock viable count on selective agars. […]

Q: For `COc1c(N2C[C@@H]3CCCN[C@@H]3C2)c(F)cc2c(=O)c(C(=O)O)cn(C3CC3)c12` [Moxifloxacin], which “C. difficile spore germination / vegetative cell proliferation” value is on record?
A: The value was “spore germination and vegetative cell proliferation”.
